The target of the assay is ChlR1-Q23A (human ChlR1 helicase, Q motif mutant, C-terminal 3xFLAG) (human) (UniProt Q96FC9). The assay is described as follows: sucrose density gradient centrifugation; linear 10-25% sucrose gradient, 25 mM Tris pH 7.4, 150 mM NaCl, 1 mM DTT; 0.5 mg/mL protein (50 uL) loaded; 120,000 g, 16 h, 4 C; fractions by SDS-PAGE; globular standards run in parallel; both purified.

Results are given in words; binding and its absence hold for the method and conditions named. Tags and fused reporters may be left off the sequences shown.

B1: ChlR1-Q23A (human ChlR1 helicase, Q motif mutant, C-terminal 3xFLAG) (enzyme, UniProt Q96FC9-2 1-906)
chain: MANETQKVGAIHFPFPFTPYSIAEDFMAELYRVLEAGKIGIFESPTGTGKSLSLICGALSWLRDFEQKKREEEARLLETGTGPLHDEKDESLCLSSSCEGAAGTPRPAGEPAWVTQFVQKKEERDLVDRLKAEQARRKQREERLQQLQHRVQLKYAAKRLRQEEEERENLLRLSREMLETGPEAERLEQLESGEEELVLAEYESDEEKKVASRVDEDEDDLEEEHITKIYYCSRTHSQLAQFVHEVKKSPFGKDVRLVSLGSRQNLCVNEDVKSLGSVQLINDRCVDMQRSRHEKKKGAEEEKPKRRRQEKQAACPFYNHEQMGLLRDEALAEVKDMEQLLALGKEARACPYYGSRLAIPAAQLVVLPYQMLLHAATRQAAGIRLQDQVVIIDEAHNLIDTITGMHSVEVSGSQLCQAHSQLLQYVERYGKRLKAKNLMYLKQILYLLEKFVAVLGGNIKQNPNTQSLSQTGTELKTINDFLFQSQIDNINLFKVQRYCEKSMISRKLFGFTERYGAVFSSREQPKLAGFQQFLQSLQPRTTEALAAPADESQASTLRPASPLMHIQGFLAALTTANQDGRVILSRQGSLSQSTLKFLLLNPAVHFAQVVKECRAVVIAGGTMQPVSDFRQQLLACAGVEAERVVEFSCGHVIPPDNILPLVICSGISNQPLEFTFQKRELPQMMDEVGRILCNLCGVVPGGVVCFFPSYEYLRQVHAHWEKGGLLGRLAARKKIFQEPKSAHQVEQVLLAYSRCIQACGQERGQVTGALLLSVVGGKMSEGINFSDNLGRCVVMVGMPFPNIRSAELQEKMAYLDQTLPRAPGQAPPGKALVENLCMKAVNQSIGRAIRHQKDFASVVLLDQRYARPPVLAKLPAWIRARVEVKATFGPAIAAVQKFHREKSASS
Turning to B1, the binding entry is listed as “no binding (tested: 0.5 mg/mL)”.

The record behind these values is paper PMC4608764, “The Q Motif Is Involved in DNA Binding but Not ATP Binding in ChlR1 Helicase” (PLoS ONE, 2015).
